Assay results: publication PMC3771917, “The Crystal Structure of the Orphan Nuclear Receptor NR2E3/PNR Ligand Binding Domain Reveals a Dimeric Auto-Repressed Conformation” (PLoS ONE, 2013)
No constants are given. Whether binding was seen depends on the method and setting. Some results given as binding are weak or reduced against the parent protein; the word gives no strength.

Protein sequences, listed by entry. Tags and fused reporters are not part of them. Lines headed by an entry give the natural chain unless they say otherwise; changes in a name come on top. Chains listed by the source or under a name are the forms on record and can include a tag or linker. Residues count along the entry.
NR2E3 LBD (residues 192-410), wild type, as Gal4DBD–NR2E3LBD and VP16AD–NR2E3LBD (Q9Y5X4, residues 192-410): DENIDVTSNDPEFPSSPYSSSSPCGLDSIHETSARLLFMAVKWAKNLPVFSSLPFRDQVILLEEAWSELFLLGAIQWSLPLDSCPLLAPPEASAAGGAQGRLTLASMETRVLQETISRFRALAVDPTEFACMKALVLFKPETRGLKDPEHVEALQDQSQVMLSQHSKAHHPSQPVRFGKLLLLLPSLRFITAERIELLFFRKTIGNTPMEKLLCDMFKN
NR2E3 LBD (residues 192-410) L372R (Q9Y5X4, form named): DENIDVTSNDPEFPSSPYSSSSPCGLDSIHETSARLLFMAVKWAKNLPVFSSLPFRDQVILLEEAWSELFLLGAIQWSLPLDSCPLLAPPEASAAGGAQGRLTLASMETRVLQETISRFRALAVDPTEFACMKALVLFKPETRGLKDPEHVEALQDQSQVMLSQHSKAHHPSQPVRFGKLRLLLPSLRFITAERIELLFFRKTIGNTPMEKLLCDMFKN
NR2E3 LBD (residues 192-410) L372R/L375R (Q9Y5X4, form named): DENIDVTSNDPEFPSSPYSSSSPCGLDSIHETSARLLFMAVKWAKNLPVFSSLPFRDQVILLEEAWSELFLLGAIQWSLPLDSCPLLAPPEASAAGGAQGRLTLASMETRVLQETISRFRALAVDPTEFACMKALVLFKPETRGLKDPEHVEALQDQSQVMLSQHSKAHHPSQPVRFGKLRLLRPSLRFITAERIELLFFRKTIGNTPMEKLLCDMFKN
NR2E3 LBD (residues 192-410) L375R (Q9Y5X4, form named): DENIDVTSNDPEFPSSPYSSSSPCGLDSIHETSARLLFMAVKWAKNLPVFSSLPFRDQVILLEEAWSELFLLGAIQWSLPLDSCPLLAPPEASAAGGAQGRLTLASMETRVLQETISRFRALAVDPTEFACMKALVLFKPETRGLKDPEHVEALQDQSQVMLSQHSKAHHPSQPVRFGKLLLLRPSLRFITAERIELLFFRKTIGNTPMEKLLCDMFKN

Experiments:
Assay in all cases: two-hybrid; mammalian two hybrid in AD293 cells: Gal4DBD–NR2E3LBD (pBind-GAL4) and VP16AD–NR2E3LBD (pACT-VP16), luciferase reporter normalised to Renilla
[1] = target: NR2E3 LBD (residues 192-410) L372R (human) (UniProt Q9Y5X4)
[2] = target: NR2E3 LBD (residues 192-410) L372R/L375R (human) (UniProt Q9Y5X4)
[3] = target: NR2E3 LBD (residues 192-410) L375R (human) (UniProt Q9Y5X4)
[4] = target: NR2E3 LBD (residues 192-410), wild type, as Gal4DBD–NR2E3LBD and VP16AD–NR2E3LBD (human) (UniProt Q9Y5X4)

## NR2E3 LBD (residues 192-410) L372R (from UniProt Q9Y5X4 192-410) (domain or fragment)
[1]
  binding: no binding

## NR2E3 LBD (residues 192-410) L372R/L375R (from UniProt Q9Y5X4 192-410) (domain or fragment)
[2]
  binding: no binding

## NR2E3 LBD (residues 192-410) L375R (from UniProt Q9Y5X4 192-410) (domain or fragment)
[3]
  binding: no binding

## NR2E3 LBD (residues 192-410), wild type, as Gal4DBD–NR2E3LBD and VP16AD–NR2E3LBD (from UniProt Q9Y5X4 192-410) (domain or fragment)
[4]
  binding: binds
